Reference: PubChem BioAssay AID2685 (National Center for Advancing Translational Sciences (NCATS), 2010)
This is one part of the list. These are further read-outs of the screen, such as a control signal, another cell line or another target. No call is given for them. Compounds called inactive in the main read-out are mostly missing here. Words in brackets tell the shape of the fitted curve; partial curves, single points and poor fits give uncertain potencies.

Test: qHTS Assay for Lipid Storage Modulators in Drosophila S3 Cells;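 on cell number change: cells counted by Cell Tracker Red CMTPX staining in the red channel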
Settings: BODIPY lipid droplet fluorescence, 18-24 h; for cell number change: measured here: cell count max response, cells fed with added oleic acid
Summary of the method: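 Drosophila S3 cells got compounds at several concentrations plus oleic acid (400 uM solution). Laser-scanning cytometry with 488 nm excitation read lipid droplets at 500-530 nm and cells at 575-640 nm. Percent activity was relative to 20 uM Triacsin C.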

[1] = measured here: lipid fluorescence (Fed channel) AC50, cells fed with added oleic acid
[2] = measured here: cell number channel AC50, cells fed with added oleic acid

SMILES	cell number change [%]	AC50 [1]	AC50 [2]
O=C(CNC(=O)c1sc2ccccc2c1Cl)NCc1ccccc1	-18.4	5.8 µM [falling, full curve]	–
Cc1ccc(S(=O)(=O)NCCCCCC(=O)NCCc2ccccc2)cc1	-5.5	–	–
CCCC(C)NCC(=O)Nc1ccccc1-c1ccccc1 (stereo not drawn)	33	6.51 µM [rising, single point]	16.4 µM [rising, single point]
C=CCSc1nccc(=O)[nH]1	4.94	25.9 µM [rising, single point]	–
Cc1oc2cc3c(C(=O)N4CCCCC4)c(C)oc3cc2c1C(=O)N1CCCCC1	47.7	0.00461 µM [rising, full curve, poor fit]	1.64 µM [rising, full curve, poor fit]
C=CCNC(=O)[C@@H]1CSC2c3ccc(OC)c(OC)c3C(=O)N21 (stereo partly drawn)	28.5	32.6 µM [rising, partial curve, poor fit]	–
Cc1c(CC(=O)N2CCN(C(=O)C3COc4ccccc4O3)CC2)c(=O)oc2cc(O)c(Cl)cc12 (stereo not drawn)	-26.3	29.1 µM [falling, single point]	–
CCN(CC)C(=S)SCC(=O)Nc1nc(-c2ccccc2)c(-c2ccccc2)o1	-4.06	–	–
CNCCOc1nc(N2CCOCC2)nc(C)c1[N+](=O)[O-]	4.89	–	–
CCOc1ccc(CCNC(=O)c2sc3nc4n(c(=O)c3c2C)CCC4)cc1OCC	-20.8	16.4 µM [falling, single point]	–
CC(C)(C)NC(=O)CN(C(=O)CSc1nnc(COc2ccccc2)o1)c1cccc(F)c1	-6.03	–	–
COc1ccc2c(CC(=O)OCC(=O)Nc3ccc(C)cc3)coc2c1	0.367	29.1 µM [rising, single point]	–
CCc1c(C)c2c(C)nn(-c3ccccc3)c2[nH]c1=O	–	–	6.51 µM [falling, single point]
N#CC12CCCCC1CC1CCCCC1(C#N)N2CCO (stereo not drawn)	-1.1	0.00461 µM [rising, full curve, poor fit]	–
O=[N+]([O-])c1ccc(NCc2ccccn2)nc1	30.2	18.4 µM [rising, single point]	25.9 µM [rising, single point]
COc1ccc(CNC(=O)c2ccc(S(=O)(=O)N3CCOCC3)cc2)cc1	-23.4	0.259 µM [falling, partial curve, poor fit]	–
Cc1ccccc1OCc1nnc(SC(C)C(=O)O)n1Cc1ccccc1 (stereo not drawn)	10.9	–	–
CCC(CC)c1nnc(NC(=O)c2c(C)nn(Cc3ccccc3Cl)c2C)s1	-31.1	29.1 µM [falling, single point]	4.11 µM [falling, full curve, poor fit]
COC(=O)[C@@H]1OC(=O)[C@H]2O[C@@]23[C@@]1(C)CC[C@@H]1[C@@]2(C)C=CC(=O)OC(C)(C)[C@@H]2CC(=O)[C@]13C	3.61	4.11 µM [rising, full curve, poor fit]	–
Cc1cccc(OCCCn2c(=O)oc3ccccc32)c1	111	23.1 µM [rising, partial curve]	23.1 µM [rising, single point]
CCOC(=O)c1c(C)[nH]c(C(=O)OCC(=O)c2ccc(OC)cc2OC)c1C	-6.04	–	–

SMILES	cell number change [%]	AC50 [1]	AC50 [2]
CCOC(=O)N1CCC(NC(=O)c2cc3c(-c4cccc(OC)c4)nn(C)c3s2)CC1	-57.1	–	29.1 µM [falling, single point]
CCn1cc(CN2CCN(Cc3ccsc3)C(CCO)C2)cn1 (stereo not drawn)	13.3	–	–
CC(C)(C)c1ccc(C(=O)NCCOc2ccccc2)cc1	-24.9	–	4.11 µM [falling, full curve, poor fit]
COc1ccccc1NS(=O)(=O)c1c(C)nc2sccn2c1=O	7.49	29.1 µM [rising, single point]	–
CCOC(=O)C1CCCN(C(=O)Cc2c(C(=O)O)[nH]c3ccccc23)C1 (stereo not drawn)	9.64	0.092 µM [falling, full curve, poor fit]	–
O=C(Cn1c2ccc(F)cc2c2nc3n(c(=O)c21)CCS3)Nc1ccccc1F	-43.6	5.8 µM [falling, full curve]	29.1 µM [falling, single point]
CC(=O)Cn1nnc2sc3c(c2c1=O)CCC(C(C)(C)C)C3 (stereo not drawn)	16.9	–	–
Cc1ccc(NC(=O)CN(C)C(=O)COC(=O)c2nc3nccc(C)n3n2)cc1	7.02	29.1 µM [rising, single point]	–
CCOC(=O)CSc1nc2c(c(=O)n(C)c(=O)n2C)n1Cc1ccccc1F	-3.64	–	–
CCC(CC)C(=O)NCc1ccccc1OC	2.86	0.58 µM [rising, single point]	–
Cc1ccc(C)c(OCCCN2CCCC2)c1	-46.1	0.651 µM [falling, full curve]	0.411 µM [falling, full curve]
CCC(CC)C1=NN2C(=N)/C(=C\c3cc(C)n(-c4cccc(C)c4)c3C)C(=O)N=C2S1	-5.56	6.51 µM [rising, single point]	6.51 µM [rising, single point]
c1cc2c3c(cccc3c1)C(N1CCCCCC1)=N2	0.481	6.51 µM [falling, single point]	–
CCN(Cc1ccccc1)C(=O)CSc1ccccc1C(=O)O	18.4	–	0.259 µM [rising, full curve, poor fit]
CCc1ccc(OCC(=O)NC(=S)Nc2ccc(C(=O)O)cc2)cc1	-11.8	29.1 µM [falling, single point]	–
COc1cc(S(=O)(=O)N2CCOCC2)ccc1NC(=O)CSc1n[nH]c(=O)[nH]c1=O	-13	2.59 µM [falling, full curve]	2.06 µM [falling, partial curve]
Cc1nc2ccc(C(=O)N/N=C/c3ccccc3O)cc2[nH]1	55.6	2.06 µM [rising, partial curve]	1.64 µM [rising, full curve]
CCOc1ccc(S(=O)(=O)N(C)c2ccc(OCC(=O)N3CCOCC3)cc2)cc1	83.1	–	29.1 µM [rising, single point]
O=C(Nc1cc(C(F)(F)F)ccc1N1CCOCC1)c1cccnc1	–	0.184 µM [rising, full curve]	0.164 µM [rising, full curve]
C=CCNC(=O)C(C)N1c2cccc3cccc(c23)S1(=O)=O (stereo not drawn)	-10.8	–	–
CN1C(=O)/C(=C/c2ccc(OCc3cccc(F)c3)cc2)NC1=S	22.5	–	–

SMILES	cell number change [%]	AC50 [1]	AC50 [2]
COc1ccc(-c2ccc(-c3noc(-c4ccccc4)n3)c(OC)n2)cc1	134	1.84 µM [rising, partial curve]	8.2 µM [rising, partial curve]
COc1cc(O)sc1C=Nc1ccc(Cl)cc1	24.4	5.8 µM [rising, full curve, poor fit]	–
Cc1ccc(/C=N/NC(=O)Cn2cnc3ccccc32)o1	17.2	29.1 µM [rising, single point]	–
CN(C)S(=O)(=O)c1cc(NC(=O)c2cc(=O)[nH]c3ccccc23)ccc1Cl	95.8	–	6.51 µM [rising, full curve]
CCN(CC)CCN(C(=O)c1ccc(C(=O)c2ccccc2)cc1)c1nc2cc3c(cc2s1)OCO3	–	35.5 µM [rising, single point]	–
CN(C)c1ccc(C(=O)/C=C/c2ccc(Br)cc2)cc1	-1.72	2.91 µM [falling, partial curve]	–
CC(C)OP(=O)(OC(C)C)C(O)c1ccc2c(c1)OCO2 (stereo not drawn)	3.18	–	–
CC(C)(C)C(=O)NC(=S)NNC(=O)c1sc2ccccc2c1Cl	-65.5	5.8 µM [falling, full curve]	7.31 µM [falling, partial curve]
Cc1cc(C)cc(SCc2noc(C(=O)NC(C)C)c2C(=O)NC(C)C)c1	27.5	18.4 µM [rising, single point]	–
Cc1ccc2c(c1)N(C(=O)CCC(=O)NCCCN1CCN(C)CC1)CCO2	17.6	6.51 µM [rising, single point]	–
O=C(O)c1nn(CC(=O)N2CCN(c3ccccc3)CC2)c(=O)c2ccccc12	23.9	29.1 µM [rising, single point]	–
Fc1ccc(-[n+]2nc(Nc3ccccc3)sc2-c2c(Cl)cccc2Cl)cc1	-29.6	29.1 µM [falling, partial curve, poor fit]	–
NC(=O)[C@@H]1CCCN1Cc1c(C(=O)N2CCN(C3CCCCC3)CC2)nc2ccccn12	13.6	6.51 µM [rising, single point]	–
COc1ccc(-c2cc(=O)oc3c(C)c(OC(C)C(C)=O)ccc23)cc1 (stereo not drawn)	25.7	–	–
Cc1ccc(C)c(C(=O)Cn2ncc(Cl)c(Cl)c2=O)c1	-0.719	3.26 µM [rising, partial curve]	–
CNc1oc(-c2ccc(C)cc2)nc1P(=O)(c1ccccc1)c1ccccc1	-33.6	–	23.1 µM [falling, single point]
CCCCCCn1c(=O)c(-c2nc3ccccc3c(=O)[nH]2)c(O)c2ccccc21	1.08	20.6 µM [rising, single point]	–
Cc1ccc(CNC(=O)Cc2ccc(NC3=NC4CS(=O)(=O)CC4S3)cc2)cc1 (stereo not drawn)	8.36	6.51 µM [rising, single point]	–
CC(=Nc1ccc(C)cc1)c1sc2ccccc2c1O	–	–	3.66 µM [rising, single point]

Entries of single compounds, looked up by structure.
CC(=Nc1ccc(C)cc1)c1sc2ccccc2c1O is entered as AC50 [2]: 3.66 µM [rising, single point]
Cc1cccc(OCCCn2c(=O)oc3ccccc32)c1 is entered as cell number change [%]: 111; AC50 [1]: 23.1 µM [rising, partial curve]; AC50 [2]: 23.1 µM [rising, single point]
CCC(CC)c1nnc(NC(=O)c2c(C)nn(Cc3ccccc3Cl)c2C)s1 is entered as cell number change [%]: -31.1; AC50 [1]: 29.1 µM [falling, single point]; AC50 [2]: 4.11 µM [falling, full curve, poor fit]
